Assay results reported in PMC7994559.
These are yes or no findings as the source states them, for the method shown. In cells and extracts the contact can be indirect. Some results given as binding are weak or reduced against the parent protein; the word gives no strength.

Protein sequences, listed by entry. Tags and fused reporters are not part of them.
UniProt P70398: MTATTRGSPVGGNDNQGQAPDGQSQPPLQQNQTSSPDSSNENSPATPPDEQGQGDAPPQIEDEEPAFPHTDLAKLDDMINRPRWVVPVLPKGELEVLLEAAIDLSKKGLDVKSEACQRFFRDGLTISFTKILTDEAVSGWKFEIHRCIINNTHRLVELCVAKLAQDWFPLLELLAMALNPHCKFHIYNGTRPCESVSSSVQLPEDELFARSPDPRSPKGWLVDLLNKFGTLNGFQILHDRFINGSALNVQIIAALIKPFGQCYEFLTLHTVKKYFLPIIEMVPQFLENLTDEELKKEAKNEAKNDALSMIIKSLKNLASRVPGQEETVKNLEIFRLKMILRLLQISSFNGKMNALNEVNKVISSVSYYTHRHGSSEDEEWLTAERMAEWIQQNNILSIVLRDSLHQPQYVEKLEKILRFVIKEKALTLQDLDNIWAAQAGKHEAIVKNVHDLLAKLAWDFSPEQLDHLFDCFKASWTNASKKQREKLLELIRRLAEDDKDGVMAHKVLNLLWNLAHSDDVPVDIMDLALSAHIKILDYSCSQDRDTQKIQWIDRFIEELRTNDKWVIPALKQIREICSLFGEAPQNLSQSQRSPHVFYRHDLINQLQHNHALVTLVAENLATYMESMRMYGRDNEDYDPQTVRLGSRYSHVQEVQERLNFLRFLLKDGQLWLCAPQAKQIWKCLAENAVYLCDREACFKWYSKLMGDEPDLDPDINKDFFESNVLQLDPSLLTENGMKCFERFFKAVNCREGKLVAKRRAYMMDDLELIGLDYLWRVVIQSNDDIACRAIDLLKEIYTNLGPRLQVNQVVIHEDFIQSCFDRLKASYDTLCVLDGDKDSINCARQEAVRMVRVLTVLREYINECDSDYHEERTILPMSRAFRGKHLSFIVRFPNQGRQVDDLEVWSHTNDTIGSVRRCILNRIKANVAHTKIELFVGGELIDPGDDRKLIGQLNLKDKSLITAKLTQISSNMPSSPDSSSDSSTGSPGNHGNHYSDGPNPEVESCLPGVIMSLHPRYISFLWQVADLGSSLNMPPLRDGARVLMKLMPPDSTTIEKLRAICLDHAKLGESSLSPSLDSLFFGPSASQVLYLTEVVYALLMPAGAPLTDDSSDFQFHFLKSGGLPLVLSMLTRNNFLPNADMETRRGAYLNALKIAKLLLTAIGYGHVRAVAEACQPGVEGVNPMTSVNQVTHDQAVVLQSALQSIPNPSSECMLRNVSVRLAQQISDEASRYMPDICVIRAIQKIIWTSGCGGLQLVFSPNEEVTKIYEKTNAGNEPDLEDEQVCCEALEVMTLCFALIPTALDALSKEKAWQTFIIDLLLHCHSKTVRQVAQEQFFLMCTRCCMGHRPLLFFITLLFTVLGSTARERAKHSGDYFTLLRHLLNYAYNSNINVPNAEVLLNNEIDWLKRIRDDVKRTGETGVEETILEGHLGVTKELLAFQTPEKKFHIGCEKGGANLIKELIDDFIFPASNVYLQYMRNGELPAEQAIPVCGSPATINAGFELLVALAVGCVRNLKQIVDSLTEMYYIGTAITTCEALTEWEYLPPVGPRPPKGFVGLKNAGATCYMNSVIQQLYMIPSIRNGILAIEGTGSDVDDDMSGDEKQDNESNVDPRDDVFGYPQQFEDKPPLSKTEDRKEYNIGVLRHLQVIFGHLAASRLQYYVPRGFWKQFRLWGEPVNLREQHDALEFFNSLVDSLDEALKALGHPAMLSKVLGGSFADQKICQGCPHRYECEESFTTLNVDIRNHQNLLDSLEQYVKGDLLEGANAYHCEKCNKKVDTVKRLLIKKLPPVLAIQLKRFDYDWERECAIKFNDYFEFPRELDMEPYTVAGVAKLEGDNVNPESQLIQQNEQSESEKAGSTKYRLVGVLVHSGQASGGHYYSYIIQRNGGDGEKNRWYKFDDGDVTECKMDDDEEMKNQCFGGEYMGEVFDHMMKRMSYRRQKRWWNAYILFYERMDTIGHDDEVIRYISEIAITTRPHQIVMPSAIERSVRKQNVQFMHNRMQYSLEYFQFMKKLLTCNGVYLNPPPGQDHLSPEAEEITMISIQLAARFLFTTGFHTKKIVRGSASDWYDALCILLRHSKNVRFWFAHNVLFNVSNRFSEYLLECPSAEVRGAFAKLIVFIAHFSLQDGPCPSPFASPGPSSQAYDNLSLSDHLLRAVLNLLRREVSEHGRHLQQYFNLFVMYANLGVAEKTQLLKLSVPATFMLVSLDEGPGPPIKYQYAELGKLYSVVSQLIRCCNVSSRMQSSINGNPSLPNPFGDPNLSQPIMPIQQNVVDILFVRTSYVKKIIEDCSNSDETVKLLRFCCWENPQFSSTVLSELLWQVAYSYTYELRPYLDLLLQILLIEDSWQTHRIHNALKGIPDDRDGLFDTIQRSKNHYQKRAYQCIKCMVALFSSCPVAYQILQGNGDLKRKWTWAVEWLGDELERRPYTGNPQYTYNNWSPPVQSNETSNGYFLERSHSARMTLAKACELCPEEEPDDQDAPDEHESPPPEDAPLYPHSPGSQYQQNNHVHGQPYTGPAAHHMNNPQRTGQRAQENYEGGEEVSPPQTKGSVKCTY
UniProt Q61188: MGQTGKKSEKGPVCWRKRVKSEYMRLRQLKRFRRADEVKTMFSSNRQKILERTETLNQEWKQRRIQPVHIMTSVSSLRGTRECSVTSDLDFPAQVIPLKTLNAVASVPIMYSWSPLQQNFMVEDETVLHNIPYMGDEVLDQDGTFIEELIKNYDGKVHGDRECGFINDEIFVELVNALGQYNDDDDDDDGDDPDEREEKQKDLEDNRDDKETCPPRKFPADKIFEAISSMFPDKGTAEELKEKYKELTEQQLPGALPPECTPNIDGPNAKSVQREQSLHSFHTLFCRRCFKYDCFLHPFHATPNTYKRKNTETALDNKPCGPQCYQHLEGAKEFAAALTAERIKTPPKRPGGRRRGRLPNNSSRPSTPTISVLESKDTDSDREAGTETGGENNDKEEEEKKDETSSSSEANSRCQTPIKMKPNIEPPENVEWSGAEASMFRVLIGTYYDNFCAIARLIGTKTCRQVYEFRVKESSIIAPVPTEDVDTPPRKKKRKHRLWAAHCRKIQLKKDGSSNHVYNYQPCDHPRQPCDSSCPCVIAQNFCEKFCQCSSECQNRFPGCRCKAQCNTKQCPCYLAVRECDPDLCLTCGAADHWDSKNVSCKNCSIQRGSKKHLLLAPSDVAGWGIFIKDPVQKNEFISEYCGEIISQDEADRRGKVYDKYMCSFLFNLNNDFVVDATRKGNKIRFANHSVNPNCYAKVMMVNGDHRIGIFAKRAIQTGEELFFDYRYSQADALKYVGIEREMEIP
UniProt Q80U70: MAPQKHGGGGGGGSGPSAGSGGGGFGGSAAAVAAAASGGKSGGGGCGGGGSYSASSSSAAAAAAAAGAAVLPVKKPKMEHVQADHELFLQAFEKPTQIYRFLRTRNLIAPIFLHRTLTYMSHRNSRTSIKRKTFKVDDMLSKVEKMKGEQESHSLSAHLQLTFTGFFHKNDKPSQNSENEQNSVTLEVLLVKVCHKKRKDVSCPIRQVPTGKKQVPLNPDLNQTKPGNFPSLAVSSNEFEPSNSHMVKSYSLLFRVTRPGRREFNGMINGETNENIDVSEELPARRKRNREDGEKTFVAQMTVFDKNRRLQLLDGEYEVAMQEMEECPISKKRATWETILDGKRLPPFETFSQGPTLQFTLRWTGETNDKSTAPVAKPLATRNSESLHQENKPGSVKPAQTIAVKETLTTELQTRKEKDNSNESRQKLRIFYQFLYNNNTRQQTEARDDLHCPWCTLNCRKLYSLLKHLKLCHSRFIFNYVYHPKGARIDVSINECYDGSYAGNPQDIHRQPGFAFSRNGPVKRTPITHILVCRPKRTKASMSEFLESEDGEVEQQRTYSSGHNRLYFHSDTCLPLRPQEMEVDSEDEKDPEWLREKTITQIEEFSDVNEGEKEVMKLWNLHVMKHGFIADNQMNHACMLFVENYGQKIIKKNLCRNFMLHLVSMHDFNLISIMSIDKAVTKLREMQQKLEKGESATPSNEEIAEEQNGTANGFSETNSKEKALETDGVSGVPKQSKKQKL

Legend:
[1] = target: Ubiquitin Specific Protease 9x (Usp9x) (mouse (endogenous in ES cells)) (UniProt P70398); experiment: co-IP; ES cell nuclear extracts (0.5 M NaCl lysis, diluted in 150 mM NaCl, 10 mM Tris pH 8, 0.5% sodium deoxycholate, 1% Triton X-100 buffer); IP with rabbit anti-Usp9x, anti-Ezh2 or IgG, Protein A Dynabeads, 4 °C; western blot
[2] = target: Ezh2 (mouse (endogenous in ES cells)) (UniProt Q61188); experiment: as above

## Ezh2 (from UniProt Q61188 1-746)
[1]
  binding: binds

## Suz12 (from UniProt Q80U70 1-741)
[1]
  binding: binds

## Ubiquitin Specific Protease 9x (Usp9x) (from UniProt P70398 1-2559) (enzyme)
[2]
  binding: binds
